# From the supplement of paper PMC12067093, “Discovery and optimisation of a covalent ligand for TRIM25 and its application to targeted protein ubiquitination” (Chemical Science, 2025)
# By UniProt entry, the sequences of proteins in these tests, tags left out. Where a name states a change or a piece, a line headed by the entry shows the natural chain unless it says otherwise.
# UniProt Q14566: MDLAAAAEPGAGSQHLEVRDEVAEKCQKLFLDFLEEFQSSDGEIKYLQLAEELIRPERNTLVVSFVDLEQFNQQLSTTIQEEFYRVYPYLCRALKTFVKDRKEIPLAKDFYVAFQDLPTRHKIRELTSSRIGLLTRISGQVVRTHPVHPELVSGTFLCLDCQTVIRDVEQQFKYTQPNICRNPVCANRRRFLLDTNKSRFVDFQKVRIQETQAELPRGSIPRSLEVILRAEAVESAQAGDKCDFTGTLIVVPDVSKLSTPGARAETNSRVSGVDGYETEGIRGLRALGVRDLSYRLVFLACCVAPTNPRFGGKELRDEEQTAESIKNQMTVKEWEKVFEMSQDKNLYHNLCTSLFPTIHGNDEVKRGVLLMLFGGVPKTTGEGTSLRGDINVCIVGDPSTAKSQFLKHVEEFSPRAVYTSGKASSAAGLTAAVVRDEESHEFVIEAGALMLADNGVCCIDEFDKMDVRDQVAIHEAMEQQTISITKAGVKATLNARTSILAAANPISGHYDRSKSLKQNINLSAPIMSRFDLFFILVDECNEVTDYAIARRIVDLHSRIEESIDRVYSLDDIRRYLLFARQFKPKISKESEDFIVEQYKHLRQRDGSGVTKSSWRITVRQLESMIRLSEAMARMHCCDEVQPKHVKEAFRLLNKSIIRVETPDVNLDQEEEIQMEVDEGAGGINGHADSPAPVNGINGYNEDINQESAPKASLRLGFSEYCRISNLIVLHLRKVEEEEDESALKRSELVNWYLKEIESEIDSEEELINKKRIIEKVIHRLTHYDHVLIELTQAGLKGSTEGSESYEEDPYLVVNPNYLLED
# UniProt Q9Y316: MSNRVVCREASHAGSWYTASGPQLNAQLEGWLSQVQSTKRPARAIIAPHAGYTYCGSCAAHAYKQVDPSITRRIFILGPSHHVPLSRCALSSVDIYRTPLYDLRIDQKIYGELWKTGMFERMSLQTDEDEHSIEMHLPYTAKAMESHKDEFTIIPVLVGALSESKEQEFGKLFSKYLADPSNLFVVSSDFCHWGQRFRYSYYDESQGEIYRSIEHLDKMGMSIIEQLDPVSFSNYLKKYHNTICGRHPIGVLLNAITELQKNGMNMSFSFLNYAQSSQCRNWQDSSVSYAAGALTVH
# UniProt O95140: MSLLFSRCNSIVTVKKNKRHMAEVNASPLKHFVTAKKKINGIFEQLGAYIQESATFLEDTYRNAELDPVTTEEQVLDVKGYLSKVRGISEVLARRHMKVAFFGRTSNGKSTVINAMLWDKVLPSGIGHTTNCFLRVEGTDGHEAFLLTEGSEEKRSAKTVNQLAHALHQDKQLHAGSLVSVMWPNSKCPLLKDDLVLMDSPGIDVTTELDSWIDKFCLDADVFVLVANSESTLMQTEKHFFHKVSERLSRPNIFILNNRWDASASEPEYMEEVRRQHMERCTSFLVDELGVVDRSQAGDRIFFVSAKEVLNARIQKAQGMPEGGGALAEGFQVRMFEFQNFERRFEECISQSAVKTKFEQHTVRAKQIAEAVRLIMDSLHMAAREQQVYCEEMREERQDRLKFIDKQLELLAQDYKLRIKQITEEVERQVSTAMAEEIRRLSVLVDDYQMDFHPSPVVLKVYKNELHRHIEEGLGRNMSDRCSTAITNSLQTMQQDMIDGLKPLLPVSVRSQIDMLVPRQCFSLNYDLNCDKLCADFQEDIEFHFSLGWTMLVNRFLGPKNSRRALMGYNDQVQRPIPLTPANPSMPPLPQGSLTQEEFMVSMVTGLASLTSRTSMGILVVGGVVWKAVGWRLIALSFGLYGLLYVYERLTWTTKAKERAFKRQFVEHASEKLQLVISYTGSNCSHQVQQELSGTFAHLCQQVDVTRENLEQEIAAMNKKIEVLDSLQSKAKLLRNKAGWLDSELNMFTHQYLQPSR
# UniProt P25205: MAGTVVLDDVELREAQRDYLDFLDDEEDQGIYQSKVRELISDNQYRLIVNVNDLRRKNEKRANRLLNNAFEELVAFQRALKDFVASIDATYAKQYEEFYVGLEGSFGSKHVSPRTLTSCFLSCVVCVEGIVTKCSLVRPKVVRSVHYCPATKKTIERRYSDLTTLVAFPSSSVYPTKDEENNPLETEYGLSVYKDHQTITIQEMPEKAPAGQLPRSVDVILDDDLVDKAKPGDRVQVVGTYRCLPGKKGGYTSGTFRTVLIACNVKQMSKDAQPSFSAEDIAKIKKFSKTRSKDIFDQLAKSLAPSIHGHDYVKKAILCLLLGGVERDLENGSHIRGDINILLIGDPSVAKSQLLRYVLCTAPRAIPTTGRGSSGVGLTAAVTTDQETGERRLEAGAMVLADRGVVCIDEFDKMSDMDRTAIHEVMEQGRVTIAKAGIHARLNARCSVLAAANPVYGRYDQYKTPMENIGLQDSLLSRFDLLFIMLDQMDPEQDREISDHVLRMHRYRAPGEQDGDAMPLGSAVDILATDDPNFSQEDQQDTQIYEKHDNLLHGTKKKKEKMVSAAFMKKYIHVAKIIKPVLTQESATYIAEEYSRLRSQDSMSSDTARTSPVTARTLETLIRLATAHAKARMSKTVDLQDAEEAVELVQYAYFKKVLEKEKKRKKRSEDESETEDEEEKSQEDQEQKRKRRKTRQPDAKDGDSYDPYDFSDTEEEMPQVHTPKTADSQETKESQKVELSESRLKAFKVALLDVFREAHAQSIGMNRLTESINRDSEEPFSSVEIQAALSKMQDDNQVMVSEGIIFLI
# UniProt P40926: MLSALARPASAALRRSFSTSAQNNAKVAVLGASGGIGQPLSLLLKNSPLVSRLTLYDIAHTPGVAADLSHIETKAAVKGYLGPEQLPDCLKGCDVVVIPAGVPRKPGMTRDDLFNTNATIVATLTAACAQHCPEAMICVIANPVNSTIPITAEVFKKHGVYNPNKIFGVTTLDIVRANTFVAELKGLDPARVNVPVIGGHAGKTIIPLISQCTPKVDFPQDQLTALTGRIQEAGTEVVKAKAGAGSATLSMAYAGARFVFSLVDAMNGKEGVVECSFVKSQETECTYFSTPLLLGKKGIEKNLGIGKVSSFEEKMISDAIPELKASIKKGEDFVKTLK
# UniProt O60318: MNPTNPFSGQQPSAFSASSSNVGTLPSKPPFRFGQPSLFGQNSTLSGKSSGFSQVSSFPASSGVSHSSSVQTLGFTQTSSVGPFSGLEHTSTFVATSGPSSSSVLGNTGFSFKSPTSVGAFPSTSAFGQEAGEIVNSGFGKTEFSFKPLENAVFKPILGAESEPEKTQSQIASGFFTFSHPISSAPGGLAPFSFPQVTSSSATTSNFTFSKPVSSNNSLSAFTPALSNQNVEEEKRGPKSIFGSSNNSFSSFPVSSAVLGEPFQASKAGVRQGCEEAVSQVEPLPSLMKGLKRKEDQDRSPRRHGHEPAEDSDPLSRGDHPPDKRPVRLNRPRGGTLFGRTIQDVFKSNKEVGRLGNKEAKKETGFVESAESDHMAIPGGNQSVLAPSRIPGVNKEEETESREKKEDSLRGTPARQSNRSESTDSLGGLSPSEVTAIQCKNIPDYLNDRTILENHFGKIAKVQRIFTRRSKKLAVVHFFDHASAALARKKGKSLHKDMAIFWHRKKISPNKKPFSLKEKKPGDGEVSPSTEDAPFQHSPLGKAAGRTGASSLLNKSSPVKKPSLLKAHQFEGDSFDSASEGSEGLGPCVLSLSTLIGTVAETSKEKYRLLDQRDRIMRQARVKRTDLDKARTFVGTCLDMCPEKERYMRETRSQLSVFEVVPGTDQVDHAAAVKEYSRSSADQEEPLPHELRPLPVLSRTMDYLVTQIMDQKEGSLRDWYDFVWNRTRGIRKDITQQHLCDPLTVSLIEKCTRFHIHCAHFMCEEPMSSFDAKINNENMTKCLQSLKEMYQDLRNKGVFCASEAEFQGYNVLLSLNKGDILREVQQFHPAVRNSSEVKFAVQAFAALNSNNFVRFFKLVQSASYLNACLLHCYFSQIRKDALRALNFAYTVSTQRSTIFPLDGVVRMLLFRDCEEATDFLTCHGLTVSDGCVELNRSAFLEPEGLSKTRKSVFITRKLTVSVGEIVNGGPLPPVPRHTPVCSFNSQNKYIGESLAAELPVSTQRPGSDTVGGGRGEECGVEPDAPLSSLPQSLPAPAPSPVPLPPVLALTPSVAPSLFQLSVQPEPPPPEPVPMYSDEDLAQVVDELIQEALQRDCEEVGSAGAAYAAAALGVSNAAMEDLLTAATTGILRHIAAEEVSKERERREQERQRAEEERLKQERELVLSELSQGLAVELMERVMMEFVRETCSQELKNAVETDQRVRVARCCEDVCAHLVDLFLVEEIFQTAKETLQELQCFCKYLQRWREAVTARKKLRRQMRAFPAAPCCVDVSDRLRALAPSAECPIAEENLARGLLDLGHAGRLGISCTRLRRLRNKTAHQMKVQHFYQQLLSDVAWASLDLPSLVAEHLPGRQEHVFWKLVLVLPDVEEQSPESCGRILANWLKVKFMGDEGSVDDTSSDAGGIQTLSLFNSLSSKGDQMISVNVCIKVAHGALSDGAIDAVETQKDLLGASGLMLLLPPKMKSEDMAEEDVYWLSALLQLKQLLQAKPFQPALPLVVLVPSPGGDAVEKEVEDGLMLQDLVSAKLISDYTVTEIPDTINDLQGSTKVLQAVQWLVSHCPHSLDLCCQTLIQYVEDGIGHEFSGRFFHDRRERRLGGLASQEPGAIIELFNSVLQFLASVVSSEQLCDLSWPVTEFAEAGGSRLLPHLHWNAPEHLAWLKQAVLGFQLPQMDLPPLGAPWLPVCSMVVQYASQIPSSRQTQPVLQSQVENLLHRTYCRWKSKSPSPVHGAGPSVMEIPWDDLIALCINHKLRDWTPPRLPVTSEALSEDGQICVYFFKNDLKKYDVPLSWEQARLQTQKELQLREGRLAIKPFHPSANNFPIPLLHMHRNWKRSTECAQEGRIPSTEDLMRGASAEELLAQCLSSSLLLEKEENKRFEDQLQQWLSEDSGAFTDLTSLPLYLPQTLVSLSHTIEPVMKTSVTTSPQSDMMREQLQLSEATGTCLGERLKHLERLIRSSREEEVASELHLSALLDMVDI
# UniProt Q8IWA4: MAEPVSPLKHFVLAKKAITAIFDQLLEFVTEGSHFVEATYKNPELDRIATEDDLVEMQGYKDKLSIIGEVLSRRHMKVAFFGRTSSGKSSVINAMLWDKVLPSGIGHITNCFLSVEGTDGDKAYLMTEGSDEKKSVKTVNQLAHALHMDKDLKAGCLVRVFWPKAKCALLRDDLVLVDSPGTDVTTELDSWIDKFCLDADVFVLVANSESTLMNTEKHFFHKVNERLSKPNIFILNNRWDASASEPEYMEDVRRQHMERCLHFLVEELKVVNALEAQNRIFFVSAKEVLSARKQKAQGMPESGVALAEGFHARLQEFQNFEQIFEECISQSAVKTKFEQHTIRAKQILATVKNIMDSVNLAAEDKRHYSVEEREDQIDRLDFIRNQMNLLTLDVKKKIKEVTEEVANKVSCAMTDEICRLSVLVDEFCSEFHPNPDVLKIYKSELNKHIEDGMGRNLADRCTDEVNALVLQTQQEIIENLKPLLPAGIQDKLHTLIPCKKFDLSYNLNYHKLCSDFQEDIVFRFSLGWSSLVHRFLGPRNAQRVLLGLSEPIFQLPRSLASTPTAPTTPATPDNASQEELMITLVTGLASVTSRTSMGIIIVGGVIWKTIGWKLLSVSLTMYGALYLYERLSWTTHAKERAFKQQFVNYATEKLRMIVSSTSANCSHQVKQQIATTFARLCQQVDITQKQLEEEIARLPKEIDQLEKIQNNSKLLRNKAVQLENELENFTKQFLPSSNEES
# The list shows a part of the results.
# Compound: CC1Cc2ccccc2N1C(=O)C1CCCN(C1)C(=O)CCl (mixture of isomers) [TRIM25 ligand 11 (diastereomer mixture)]
# Experiment: probe-labelled cysteine peptide fold change vs DMSO (competition) (log2 fold change); higher = less target engagement (more negative = stronger competition)
# Details: 50 µM; THP-1; incubation time: 4 h
# 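Also: competitive chemoproteomic profiling in live THP-1 cells with an iodoacetamide desthiobiotin (IA-DTB) probe, comparing probe-labelled peptide intensities in compound-treated cells against DMSO-treated controls.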
row,Target,probe-labelled cysteine peptide fold change
1,METAP1_P53582_368_SAQFEHTLLVTDTGCEILTR (UniProt P53582),-0.0153
2,MED24_O75448_546_ILNPDHPCFRPDSTKVESLVALLNNSSEMK (UniProt O75448),-0.154
3,MCM6_Q14566_91_VYPYLCR (UniProt Q14566),0.156
4,MEMO1_Q9Y316_55+58_AIIAPHAGYTYCGSCAAHAYK (UniProt Q9Y316),-0.0879
5,MFN2_O95140_281_CTSFLVDELGVVDR (UniProt O95140),0.0653
6,MCM3_P25205_319_KAILCLLLGGVER (UniProt P25205),-0.177
7,MDH2_P40926_93_GCDVVVIPAGVPR (UniProt P40926),0.0728
8,MCM3AP_O60318_740_DITQQHLCDPLTVSLIEK (UniProt O60318),0.0427
9,MCM3AP_O60318_1864_GASAEELLAQCLSSSLLLEK (UniProt O60318),-0.0605
10,MFN1_Q8IWA4_513_LCSDFQEDIVFR (UniProt Q8IWA4),0.355

# Random excerpt: two records from the list
row,Target,probe-labelled cysteine peptide fold change
8,MCM3AP_O60318_740_DITQQHLCDPLTVSLIEK (UniProt O60318),0.0427
1,METAP1_P53582_368_SAQFEHTLLVTDTGCEILTR (UniProt P53582),-0.0153
